Measured values reported in US8389766B2, “Insecticidal compounds” (Syngenta Crop Protection LLC, priority 2006, dated 2013).
Some of these results come from one statement about several compounds together.

Legend:
Assay type in all cases: in vivo
Spodoptera littoralis = Spodoptera littoralis (Egyptian cotton leafworm) cotton leaf disc spray test; details: 200 ppm sprayed on cotton leaf discs, 5 L1 larvae; mortality, feeding behaviour, growth regulation 3 DAT
Plutella xylostella = Plutella xylostella (diamond back moth) larvae test on artificial diet; details: 200 ppm (concentration in well 18 ppm), L2 larvae, larval mortality, growth regulation after 6 days
Diabrotica balteata = Diabrotica balteata (corn root worm) larvae test on artificial diet; details: 200 ppm (concentration in well 18 ppm), L2 larvae, larval mortality, growth regulation after 5 days
Thrips tabaci = Thrips tabaci (onion thrips) sunflower leaf disc spray test; details: 200 ppm sprayed on sunflower leaf discs, mixed ages; mortality after 7 days
Heliothis virescens = Heliothis virescens (tobacco budworm) egg test on artificial diet; details: 200 ppm (concentration in well 18 ppm), eggs 0-24 h old on artificial diet; egg mortality, larval mortality, growth regulation after 4 days
Tetranychus urticae = Tetranychus urticae (two-spotted spider mite) bean leaf disc spray test; details: 200 ppm sprayed on bean leaf discs, mixed ages; egg, larval and adult mortality 8 days later

Cc1cc(C(F)(C(F)(F)F)C(F)(F)F)cc(C)c1NC(=O)c1ccc(C#N)c(NC(=O)c2ccccc2F)c1 [A3]
at least 80%: control of Spodoptera littoralis (Spodoptera littoralis) | control of Plutella xylostella (Plutella xylostella) | control of Diabrotica balteata (Diabrotica balteata) | control of Thrips tabaci (Thrips tabaci)

CCc1cc(C(F)(C(F)(F)F)C(F)(F)F)cc(CC)c1NC(=O)c1ccc(C#N)c(N(C)C(=O)c2ccccc2F)c1 [C24]
at least 80%: control of Spodoptera littoralis (Spodoptera littoralis) | control of Plutella xylostella (Plutella xylostella) | control of Diabrotica balteata (Diabrotica balteata) | control of Heliothis virescens (Heliothis virescens) | control of Thrips tabaci (Thrips tabaci)

CCc1cc(C(F)(C(F)(F)F)C(F)(F)F)cc(CC)c1NC(=O)c1ccc(C#N)c(N(C)C(=O)c2ccccc2Cl)c1 [C26]
at least 80%: control of Spodoptera littoralis (Spodoptera littoralis) | control of Plutella xylostella (Plutella xylostella) | control of Diabrotica balteata (Diabrotica balteata) | control of Heliothis virescens (Heliothis virescens) | control of Thrips tabaci (Thrips tabaci)

CCc1cc(C(F)(C(F)(F)F)C(F)(F)F)cc(CC)c1NC(=O)c1ccc(C#N)c(N(C)C(=O)c2cc(Cl)ccc2F)c1 [C29]
at least 80%: control of Spodoptera littoralis (Spodoptera littoralis) | control of Plutella xylostella (Plutella xylostella) | control of Diabrotica balteata (Diabrotica balteata) | control of Heliothis virescens (Heliothis virescens) | control of Thrips tabaci (Thrips tabaci)

CCc1cc(C(F)(C(F)(F)F)C(F)(F)F)cc(CC)c1NC(=O)c1ccc(C#N)c(N(C)C(=O)c2ccccc2)c1 [C35]
at least 80%: control of Spodoptera littoralis (Spodoptera littoralis) | control of Plutella xylostella (Plutella xylostella) | control of Diabrotica balteata (Diabrotica balteata) | control of Heliothis virescens (Heliothis virescens) | control of Thrips tabaci (Thrips tabaci)

CCc1cc(C(F)(C(F)(F)F)C(F)(F)F)cc(CC)c1NC(=O)c1ccc(C#N)c(N(C)C(=O)c2ccc(F)cc2Cl)c1 [C38]
at least 80%: control of Spodoptera littoralis (Spodoptera littoralis) | control of Plutella xylostella (Plutella xylostella) | control of Diabrotica balteata (Diabrotica balteata) | control of Heliothis virescens (Heliothis virescens) | control of Thrips tabaci (Thrips tabaci)

CCc1cc(C(F)(C(F)(F)F)C(F)(F)F)cc(CC)c1NC(=O)c1ccc(C#N)c(N(C)C(=O)c2cccc(F)c2F)c1 [C39]
at least 80%: control of Spodoptera littoralis (Spodoptera littoralis) | control of Plutella xylostella (Plutella xylostella) | control of Diabrotica balteata (Diabrotica balteata) | control of Heliothis virescens (Heliothis virescens) | control of Thrips tabaci (Thrips tabaci)

CCN(C(=O)c1ccc(F)cc1)c1cc(C(=O)Nc2c(C)cc(C(F)(C(F)(F)F)C(F)(F)F)cc2C)ccc1C#N [C42]
at least 80%: control of Spodoptera littoralis (Spodoptera littoralis) | control of Plutella xylostella (Plutella xylostella) | control of Diabrotica balteata (Diabrotica balteata) | control of Tetranychus urticae (Tetranychus urticae) | control of Heliothis virescens (Heliothis virescens)

CCN(C(=O)c1ccc(C#N)cc1)c1cc(C(=O)Nc2c(C)cc(C(F)(C(F)(F)F)C(F)(F)F)cc2C)ccc1C#N [C43, 4-cyano-3-[(4′-cyano-benzoyl)-ethyl-amino]-N-[2,6-dimethyl-4-(1,2,2,2-tetrafluoro-1-trifluoromethyl-ethyl)-phenyl]-benzamide]
at least 80%: control of Spodoptera littoralis (Spodoptera littoralis) | control of Plutella xylostella (Plutella xylostella) | control of Diabrotica balteata (Diabrotica balteata) | control of Tetranychus urticae (Tetranychus urticae) | control of Heliothis virescens (Heliothis virescens)

Cc1cc(C(F)(C(F)(F)F)C(F)(F)F)cc(C)c1NC(=O)c1ccc(C#N)c(NC(=O)c2ccccc2F)c1F [D1]
at least 80%: control of Spodoptera littoralis (Spodoptera littoralis) | control of Plutella xylostella (Plutella xylostella) | control of Diabrotica balteata (Diabrotica balteata) | control of Tetranychus urticae (Tetranychus urticae) | control of Heliothis virescens (Heliothis virescens)

Cc1ccccc1C(=O)Nc1c(C#N)ccc(C(=O)Nc2c(C)cc(C(F)(C(F)(F)F)C(F)(F)F)cc2C)c1F [D2]
at least 80%: control of Spodoptera littoralis (Spodoptera littoralis) | control of Plutella xylostella (Plutella xylostella) | control of Diabrotica balteata (Diabrotica balteata) | control of Tetranychus urticae (Tetranychus urticae) | control of Heliothis virescens (Heliothis virescens)

Cc1cc(C(F)(C(F)(F)F)C(F)(F)F)cc(C)c1NC(=O)c1ccc(C#N)c(NC(=O)c2ccccc2Cl)c1F [D3]
at least 80%: control of Spodoptera littoralis (Spodoptera littoralis) | control of Plutella xylostella (Plutella xylostella) | control of Diabrotica balteata (Diabrotica balteata) | control of Tetranychus urticae (Tetranychus urticae) | control of Heliothis virescens (Heliothis virescens)

Cc1cc(C(F)(C(F)(F)F)C(F)(F)F)cc(C)c1NC(=O)c1ccc(C#N)c(NC(=O)c2cc(Cl)ccc2F)c1F [D8]
at least 80%: control of Spodoptera littoralis (Spodoptera littoralis) | control of Plutella xylostella (Plutella xylostella) | control of Diabrotica balteata (Diabrotica balteata) | control of Tetranychus urticae (Tetranychus urticae) | control of Heliothis virescens (Heliothis virescens)

Cc1cc(C(F)(C(F)(F)F)C(F)(F)F)cc(C)c1NC(=O)c1ccc(C#N)c(NC(=O)c2ccccc2C(F)(F)F)c1F [D17]
at least 80%: control of Spodoptera littoralis (Spodoptera littoralis) | control of Plutella xylostella (Plutella xylostella) | control of Diabrotica balteata (Diabrotica balteata) | control of Tetranychus urticae (Tetranychus urticae) | control of Heliothis virescens (Heliothis virescens)

Cc1cc(C(F)(C(F)(F)F)C(F)(F)F)cc(C)c1NC(=O)c1ccc(C#N)c(NC(=O)c2ccc(F)cc2Cl)c1F [D18]
at least 80%: control of Spodoptera littoralis (Spodoptera littoralis) | control of Plutella xylostella (Plutella xylostella) | control of Diabrotica balteata (Diabrotica balteata) | control of Tetranychus urticae (Tetranychus urticae) | control of Heliothis virescens (Heliothis virescens)

CCc1cc(C(F)(C(F)(F)F)C(F)(F)F)cc(CC)c1NC(=O)c1ccc(C#N)c(NC(=O)c2ccccc2F)c1F [D22]
at least 80%: control of Spodoptera littoralis (Spodoptera littoralis) | control of Plutella xylostella (Plutella xylostella) | control of Diabrotica balteata (Diabrotica balteata) | control of Heliothis virescens (Heliothis virescens) | control of Thrips tabaci (Thrips tabaci)

CCc1cc(C(F)(C(F)(F)F)C(F)(F)F)cc(CC)c1NC(=O)c1ccc(C#N)c(NC(=O)c2ccccc2)c1F [D34]
at least 80%: control of Spodoptera littoralis (Spodoptera littoralis) | control of Plutella xylostella (Plutella xylostella) | control of Diabrotica balteata (Diabrotica balteata) | control of Heliothis virescens (Heliothis virescens) | control of Thrips tabaci (Thrips tabaci)

COCc1cc(C(F)(C(F)(F)F)C(F)(F)F)cc(C)c1NC(=O)c1ccc(C#N)c(NC(=O)c2ccccc2F)c1F [D39]
at least 80%: control of Spodoptera littoralis (Spodoptera littoralis) | control of Heliothis virescens (Heliothis virescens) | control of Thrips tabaci (Thrips tabaci)

COCc1cc(C(F)(C(F)(F)F)C(F)(F)F)cc(C)c1NC(=O)c1ccc(C#N)c(NC(=O)c2ccccc2C)c1F [D40]
at least 80%: control of Heliothis virescens (Heliothis virescens) | control of Thrips tabaci (Thrips tabaci)

COCc1cc(C(F)(C(F)(F)F)C(F)(F)F)cc(C)c1NC(=O)c1ccc(C#N)c(NC(=O)c2ccc(C)cc2)c1F [D44]
at least 80%: control of Heliothis virescens (Heliothis virescens) | control of Thrips tabaci (Thrips tabaci)

COCc1cc(C(F)(C(F)(F)F)C(F)(F)F)cc(C)c1NC(=O)c1ccc(C#N)c(NC(=O)c2ccccc2)c1F [D52]
at least 80%: control of Plutella xylostella (Plutella xylostella) | control of Diabrotica balteata (Diabrotica balteata) | control of Heliothis virescens (Heliothis virescens) | control of Thrips tabaci (Thrips tabaci)

Cc1cc(C(F)(C(F)(F)F)C(F)(F)F)cc(C)c1NC(=O)c1cc(F)c(C#N)c(NC(=O)c2ccc(C#N)cc2)c1F [E26]
at least 80%: control of Spodoptera littoralis (Spodoptera littoralis) | control of Plutella xylostella (Plutella xylostella) | control of Diabrotica balteata (Diabrotica balteata) | control of Tetranychus urticae (Tetranychus urticae) | control of Heliothis virescens (Heliothis virescens)
